Assay results: PubChem BioAssay AID493014 (National Center for Advancing Translational Sciences (NCATS), 2011)
The list shows a part of the results. Further columns of the screen follow, without active or inactive calls. The list favours compounds with an active or inconclusive main result. Words in brackets tell the shape of the fitted curve; partial curves, single points and poor fits give uncertain potencies.

Test: qHTS Assay to Find Inhibitors of Chronic Active B-Cell Receptor Signaling
Conditions: ABC-DLBCL IkBa-CBG/CBR reporter, luminescence ratio (green luciferase fused to IkBa over red control in TMD8 lymphoma cells), 4 h
In short: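 Doxycycline induced both beetle luciferases in TMD8 lymphoma cells; IKK-driven degradation limits the IkappaBalpha-fused green signal, while red luminescence normalises for cell number and nonspecific effects. Compounds tested up to 46 uM, 4 hrs.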

[1] = measured here: CBR red luminescence, cell number
[2] = measured here: IkBa-CBG green luminescence

SMILES: Cc1c(CCC(=O)O)c(=O)oc2cc3oc4c(c3cc12)CCCC4
- AC50 [1]: 1.41 µM [rising, full curve, poor fit]
- AC50 [2]: 2 µM [falling, full curve]

SMILES: Cc1ccccc1OCCCC(=O)Nc1ccc(Br)cc1
- AC50 [1]: 20.6 µM [rising, partial curve, poor fit]

SMILES: COc1ccc(/C=N/NC(=O)c2ccc(CN3c4cccc5cccc(c45)S3(=O)=O)cc2)cc1
- AC50 [1]: 29.1 µM [rising, partial curve, poor fit]

SMILES: COc1ccc(-c2cc(C(=O)NCc3ccco3)no2)cc1OC
- AC50 [1]: 0.0058 µM [rising, full curve, poor fit]
- AC50 [2]: 0.0058 µM [falling, full curve, poor fit]

SMILES: Clc1ccc2nc(-c3ccccc3)cn2c1
- AC50 [1]: 11.2 µM [falling, single point]

SMILES: COC(=O)Nc1nc2ccc(SC(C)C)cc2[nH]1
- AC50 [2]: 7.31 µM [falling, partial curve, poor fit]

SMILES: Cc1ccc(NS(=O)(=O)c2ccc3c(c2)n(C)c(=O)n3C)c(C)c1
- AC50 [1]: 5.62 µM [rising, single point]

SMILES: COc1cc2c(cc1OC)CN(CC(=O)Nc1ccc(C#N)cc1)CC2
- AC50 [1]: 7.31 µM [falling, single point]

SMILES: O=C(COc1cc(F)ccc1[N+](=O)[O-])Nc1ccc2c(c1)OCO2
- AC50 [1]: 29.1 µM [rising, partial curve, poor fit]

SMILES: COc1cc2ccccc2cc1C(=O)Nc1nc(C)c(C(C)=O)s1
- AC50 [1]: 3.55 µM [falling, full curve]

SMILES: CCc1ccc(C(=O)Cn2ccsc2=N)cc1
- AC50 [1]: 0.355 µM [rising, full curve, poor fit]

SMILES: Cc1cc(/C=c2\sc3nc4ccccc4n3c2=O)c(C)n1-c1ccc(C(=O)O)cc1
- AC50 [2]: 1 µM [rising, full curve, poor fit]

SMILES: c1cc2ccc3ccc(-n4cnnn4)c4ccc(c1)c2c34
- AC50 [1]: 20.6 µM [rising, single point]

SMILES: Cc1cccc(-n2ccnc2CN2CCN(C3CCCC3)C(CCO)C2)c1 (configuration not stated)
- AC50 [1]: 31.6 µM [rising, single point]

SMILES: O=C(COC(=O)c1cc(=O)[nH]c2ccccc12)NC1CCCCCCC1
- AC50 [1]: 35.5 µM [rising, single point]

SMILES: COc1ccc(C)cc1NC(=O)CSc1nc(=O)n(Cc2ccco2)c2c1CCC2
- AC50 [1]: 15.8 µM [falling, single point]

SMILES: COc1ccccc1NCC(=O)NC(=O)NC1CCCCC1
- AC50 [1]: 7.31 µM [rising, partial curve, poor fit]

SMILES: CC1=CC(C)(C)Nc2ccc(OC(=O)C(C)N3C(=O)c4ccccc4C3=O)cc21 (configuration not stated)
- AC50 [1]: 11.6 µM [falling, partial curve, poor fit]

SMILES: Cc1cc(C(=O)Nc2ccc(N3CCOCC3)c3nonc23)ccc1[N+](=O)[O-]
- AC50 [1]: 1 µM [rising, full curve]

SMILES: O=C(Cn1cnc2c(nnn2Cc2ccccc2F)c1=O)NCC1CCCO1 (configuration not stated)
- AC50 [1]: 29.1 µM [rising, single point]

SMILES: COc1ccccc1C1=Nn2c(COc3ccccc3)nnc2SC1
- AC50 [1]: 12.6 µM [falling, single point]

SMILES: CC1=C/C(=N\NC(=S)NCCc2ccccc2)CC(C)(C)C1
- AC50 [1]: 35.5 µM [rising, partial curve, poor fit]

SMILES: COc1ccc(N=c2oc3ccccc3cc2C(=O)Nc2ccccn2)cc1OC
- AC50 [1]: 25.1 µM [falling, single point]

SMILES: Cc1nn(-c2ccccc2)c(C)c1C(=O)OCC(=O)NC12CC3CC(CC(C3)C1)C2
- AC50 [1]: 35.5 µM [falling, single point]

SMILES: COc1ccc(NC(=O)CSc2ccc(-c3cccs3)nn2)c(OC)c1
- AC50 [1]: 6.31 µM [falling, single point]

SMILES: Cc1c(C(=O)OCc2ccccc2)[nH]c2c1C(=O)CC(c1ccco1)C2 (configuration not stated)
- AC50 [1]: 5.8 µM [rising, full curve]
- AC50 [2]: 6.51 µM [falling, partial curve, poor fit]

SMILES: Cc1ccc(NC(=O)c2cc(S(=O)(=O)N3CCOCC3)cs2)cc1
- AC50 [1]: 10 µM [falling, partial curve, poor fit]

SMILES: Cc1nn(C(C)c2n[nH]c(=S)n2-c2cccc(Cl)c2)c(C)c1[N+](=O)[O-] (configuration not stated)
- AC50 [1]: 4.61 µM [rising, partial curve, poor fit]

SMILES: COc1ccc([C@]23Cc4ccccc4C(O2)C2=C(CC(C)(C)CC2=O)O3)cc1
- AC50 [1]: 5.01 µM [rising, partial curve, poor fit]

SMILES: CN1C(=O)c2ccccc2Sc2ccc(NC(=O)Cc3ccc(Cl)cc3)cc21
- AC50 [1]: 22.4 µM [falling, partial curve, poor fit]
- AC50 [2]: 10 µM [rising, partial curve, poor fit]

SMILES: O=C(Oc1ccc(F)cc1C(=O)/C=C/c1cccs1)c1cccc([N+](=O)[O-])c1
- AC50 [1]: 7.94 µM [rising, partial curve, poor fit]
- AC50 [2]: 8.91 µM [falling, partial curve]

SMILES: COc1ccc(-c2csc(/N=C/N(C)C)n2)cc1OC
- AC50 [1]: 28.2 µM [rising, single point]

SMILES: O=C(Nc1ccccc1)OC1CCC2CC1CCC2OC(=O)Nc1ccccc1 (configuration not stated)
- AC50 [1]: 0.461 µM [rising, full curve, poor fit]

SMILES: Cc1ccccc1C1c2[nH]c3ccccc3c2C[C@H]2C(=O)N(c3ccccc3C(=O)NCCN3CCOCC3)C(=O)N12 (some centres not stated)
- AC50 [1]: 15.8 µM [falling, single point]

SMILES: CCCCc1[nH]nc2c1C1(C(=O)N(CC)c3ccccc31)C(C#N)=C(N)O2 (configuration not stated)
- AC50 [1]: 32.6 µM [falling, single point]

SMILES: CCc1ccc(-c2nc(CS(=O)CC(=O)O)c(C)o2)cc1 (configuration not stated)
- AC50 [1]: 10 µM [falling, partial curve]

SMILES: O=C(O)c1cccc(NS(=O)(=O)c2ccc(NC(=O)c3ccco3)cc2)c1
- AC50 [1]: 35.5 µM [falling, single point]

SMILES: CN1CCN(c2nc(NCCOC34CC5CC(CC(C5)C3)C4)nc(OCC(F)(F)F)n2)CC1
- AC50 [1]: 7.31 µM [falling, partial curve, poor fit]

SMILES: CCCCn1c(N)c(N(CC(C)C)C(=O)CN2C(=O)NC3(CC(C)CC(C)(C)C3)C2=O)c(=O)[nH]c1=O (configuration not stated)
- AC50 [1]: 0.517 µM [rising, full curve, poor fit]

SMILES: Cc1ccc(-c2cc(C(=O)N/N=C/c3cccnc3)n[nH]2)o1
- AC50 [1]: 9.2 µM [falling, partial curve, poor fit]
- AC50 [2]: 23.1 µM [rising, partial curve, poor fit]

SMILES: CC(=O)Nc1ccc(S(=O)(=O)/N=C2\SCCN2S(=O)(=O)c2ccc(NC(C)=O)cc2)cc1
- AC50 [1]: 5.62 µM [rising, single point]

SMILES: C/C(=N/NC(=O)c1ccccc1)c1ccc(NC(=O)C(F)(F)F)cc1
- AC50 [1]: 10 µM [falling, partial curve, poor fit]

SMILES: Cc1ccc(NC(=S)NNC(=O)c2nn(C)cc2Cl)cc1
- AC50 [1]: 35.5 µM [falling, single point]

SMILES: Cc1ccc2nc(NC(=O)c3ccco3)sc2c1
- AC50 [1]: 2.91 µM [falling, full curve]

SMILES: CC1=NN(Cc2ccccc2)C(=O)C1C(c1ccc(Cl)cc1)C(C#N)C#N (configuration not stated)
- AC50 [2]: 18.4 µM [falling, partial curve, poor fit]

SMILES: COC(=O)Cc1c(C)nc2nc(NCc3ccccc3OC)[nH]n2c1=O
- AC50 [1]: 3.98 µM [falling, partial curve, poor fit]

SMILES: O=C(c1ccco1)N1CCN(C/C=C/c2ccccc2)CC1
- AC50 [1]: 10 µM [rising, partial curve, poor fit]

SMILES: O=C1ON=C(c2ccc(Cl)cc2)/C1=C/c1ccc(O)cc1
- AC50 [1]: 8.91 µM [falling, partial curve, poor fit]

SMILES: Cc1ccccc1OCC(=O)Nn1c(COc2ccccc2)nc2ccccc2c1=O
- AC50 [1]: 10.3 µM [falling, partial curve, poor fit]

SMILES: Cc1csc(NC(=O)COc2ccc3c(c2)CCC3)n1
- AC50 [1]: 13 µM [falling, single point]

SMILES: COCCN(C(=O)c1cccc(N2C(=O)CCC2=O)c1)c1nc(-c2ccc([N+](=O)[O-])cc2)cs1
- AC50 [1]: 6.51 µM [rising, full curve, poor fit]

SMILES: O=C1Nc2ccc(Br)cc2/C1=N/N=C/C1=C(N2CCOCC2)C(=C\c2ccccc2)/CC1
- AC50 [1]: 29.1 µM [rising, single point]

SMILES: CN=C1c2c(-c3ccccc3)c3cc(OC)ccc3n2CCN1C
- AC50 [1]: 16.4 µM [falling, partial curve]

SMILES: O=C(N1CCOCC1)n1nnc2ccccc21
- AC50 [1]: 35.5 µM [falling, single point]

SMILES: C=CCn1c(O)c(C2=c3ccccc3=NC2=O)sc1=Nc1ccc(O)cc1
- AC50 [1]: 22.4 µM [falling, single point]

SMILES: O=C(Nc1ccc([N+](=O)[O-])cn1)C1CC1
- AC50 [1]: 8.2 µM [falling, partial curve, poor fit]

SMILES: Clc1ccc(C2Nc3cccc4cccc(c34)N2)cc1Cl
- AC50 [1]: 31.6 µM [falling, single point]

SMILES: COc1ccc(Nc2nc3ccc(C)cc3n3cnnc23)cc1Cl
- AC50 [1]: 0.794 µM [rising, full curve, poor fit]

SMILES: O=C(CCc1c[nH]c2ccccc12)NCCc1ccc(Cl)cc1
- AC50 [1]: 0.1 µM [falling, full curve, poor fit]

SMILES: CC(=O)Nc1ccc(-c2csc(Nc3cc(C)ccn3)n2)cc1
- AC50 [1]: 35.5 µM [falling, single point]

SMILES: CCc1cccc(NC(=O)C2CCCN(c3ncnc4c3nc3n4CCCCC3)C2)c1 (configuration not stated)
- AC50 [1]: 4.47 µM [rising, single point]
